From patent US20060217368A1, “Drug for nerve regeneration” (Kyowa Hakko Kogyo Co., Ltd., priority 2003, published 2006)
Some of these results come from one statement about several compounds together.

Test system: GSK-3β
Assay: Knockdown of GSK-3β in ANSC-7 cells by siRNA (Western blotting)
Assay type: cell-based, rat
Conditions: 150 pmol per 1×10^6 ANSC-7 cells; 48 hrs following seeding

Substance	decrease in amount of GSK-3β in comparison with the negative control [%]
siRNA-B1: double stranded siRNA having SEQ ID NO: 14 and 15, specific for GSK-3β (chain 1 GUCAGUUACACAGACACUAUU; chain 2 UAGUGUCUGUGUAACUGACUU; listed as RNA, chemistry not given here)	≥ 90
siRNA-B2: double stranded siRNA having SEQ ID NO: 16 and 17, specific for GSK-3β (chain 1 GUCUAGCCUAUAUCCAUUCUU; chain 2 GAAUGGAUAUAGGCUAGACUU; listed as RNA, chemistry not given here)	≥ 90
